# Measurements taken from the supplement of paper PMC11237882.
# This is one part of the list. Values are worked out from sequencing counts and are noisy.
# T1: Homer1 EVH1 domain
# T1 chain: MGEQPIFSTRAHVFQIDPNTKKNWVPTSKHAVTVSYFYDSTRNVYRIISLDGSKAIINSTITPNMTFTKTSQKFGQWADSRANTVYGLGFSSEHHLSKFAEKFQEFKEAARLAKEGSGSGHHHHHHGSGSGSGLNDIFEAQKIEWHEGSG
# Molecular target: T1, Homer1 EVH1 domain
# Assay: enrichment score (AUC of log2 frequency ratio across FACS sorting rounds) (log2 AUC); higher = stronger enrichment for Homer1 EVH1 binding
row,Binder,enrichment score
1,MGYARKVGWVTAGLVIGARACYCIYRLTRGRKQNKE,3.2
2,AALMSRWKATRIFSYGYGRIEILSGFINGLFLIVIA,-1.96
3,IVLTAGVILLLAGILVLIPVCWTAHAIIQDFYNPLV,1.13
4,EDVAVAAAVLESLLKLALLAGLTITVFGFAYSQLAL,4.01
5,FALCALNALTTTVCLVAAALRYLQIFATRRSCIDES,2.18
6,WYERFVQPCLVELLGSALFIFIGCLSVIENGTDTGL,2.36
7,GFEYAILMTMVLTIFIKYVLHSVDLQSENPWDNKAG,3.49
8,PEGRPRSRHGNGGLAALPYLRLRHPLSVLGINYQQF,-0.955
9,LMALCLMALPFIPASNLFFPVGFVVAERVLYVPSMG,0.25
10,LLEDSCHYLLYSLIFVNSYPVTMSIFPVLLFSLLHA,1.46
11,CPLFSGIGYASVVIVSLLNVYYIVILAWATYYLFQS,-1.32
12,SWKNVRKNVDTYNPWDRLSVAVISPYLQCVLWIFLL,-0.753
13,PPPVPGNLLVPPPPVFNAPQGLGWSQVPRGQPTFTK,1.57
14,SSSFSSSRASSSRSGGGGHGSSRGFGGGGYGGFYNS,-0.704
15,NTKEFWSFIYSVAALACIAITEITFFMGYTIATILH,3.47
16,GVASALAMALIGAVSSYISYQQKKFCFSIQQGLNAH,3.59
17,HRYNFYLQHPINVNNIIIDTILIITTLIPISVHVHS,-1.15
18,KTFFSLKRIRRHIITHSGYTPYKCKVCGKAFDYPSR,1.98
19,GLSAVPPTRVPGPLAPRRRRYTLTPARLRWDHFNLT,-0.112
20,ILMSSGPSIGIKDYNILTRITQLGIIISLICLAICI,0.675
21,GVCLLWVAFFECFVIAWIYGGDNLYDGIEDMIGYRP,1.28
22,QEPLTLSWGHLPSRPSRSWASLLAWLSWLSWLSLMS,2.75

row,Binder,enrichment score
1,LMPAKFVRCAYVIILMAIYWCTEVIPLAVTSLMPVL,-1.54
2,RLKTHSGPNATPEDKQLAALCYCCLALLYWRMFRLK,2.57
3,ELDMENEFLLPPVFGEEYEEQPRPRSKKKGAKRKAV,-0.454
4,MSALWLLLGLLALMDLSESSNWGCYGNIQSLDTPGA,0.551
5,ITAWYIGFLTLILSSFLVYLVEKDVPEVDAQGEEMK,3.79
6,KMALETHFWTWINHLVTWGSIIFYFVFSLFYGGILW,3.4
7,VVPLLEGLRAKWNKVLWSHGNSRIQFCGRNALAMPV,-2.47
8,MAILLACFTAVLAFICLQFWCVRCHEPRWSYRAGHM,-0.731
9,MRPGAPGPLWPLPWGALAWAVGFVSSMGSGNPAPGG,1.43
10,GTPTYVAPEIIAETGYGLKVDIWAAGVITYILLCGF,-2.23
11,FLKNSSKQEKARASAETFRSAKYHNALLCLLFLFFF,3.17
12,KHDHIVSTIYSTFGAFYIPLALILILYYKIYRAAKT,4.64
13,PLLDLTNSIITAVFLSVVAILAMQEKKRRHLLYVGG,2.76
14,MARHGCLGLGLFCCVLFAATVGPQPTPSIPGAPATT,1.52
15,MGSLFPLSLLFFLAAAYPGVGSALGRRTKRAQSPKG,3.46
16,RLSRIAFPLLFGIFNLVYWATYLNREPQLKAPTPHQ,2.04
17,IILSLFVMGGVYFVCQRVVCQRYAGANGPFPHEYVS,-0.729
18,KIKQLNLAMINYVLVVYGLAISLLGIGQPEELSEAE,2.34
19,PIIYYSVCYSIVSLMYFIGFLLGDSTACNKADAKLE,3.44
20,WVFGSGLCKVAGALFNINFYAGALLLACISFDRYLN,1.97
21,TEEHFPEPDNAIFTQRVITGTMALLFSFFFIIFIVF,-0.0106
22,EQLALRNEEAENESSKLRRENKRLKKKNEQLCQDII,-0.0992
